In PubChem BioAssay AID1508600 (Functional Genomics Laboratory (NCATS/FGL), 2020):
The whole screen tested about 53,000 sequences, of which about 3,700 (7%) were called active.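 Rule for the calls: active = gene knockdowns whose robust z-score for IL-1 alpha signal is at least 2 or at most -2, so actives lie on both sides; inactive = the rest.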 This is one part of the list.

Assay: Components of the Cytosolic LPS Sensing Pathway: Gene Identification via Genome-wide siRNA Screen;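 note: robust z of the log signal after scaling to non-targeting control siRNA wells of the plate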
Conditions: RAW264.7 macrophages, IL-1a HTRF, actives lie on both sides, screened at 100 nM (by protocol), cells primed 5 h with Pam3CSK4 first
Procedure, shortened: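 RAW264.7 mouse macrophages reverse-transfected with single siRNAs (100 nM final) for 48h, primed with Pam3CSK4 for 5 hours, then transfected with LipidA for 24 hour. Supernatant IL-1a read by HTRF; values normalized to negative-control median, log-transformed robust z-scores.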
For GGAAGAAAUGGACCAGCUGTT against Hgh1, the z-score was inactive: -0.416.
In the case of GCAUAAAGGAAUUGAUUCCTT against Zfp874a, the z-score is reported as inactive: 0.652.
With GUUUUUGCUAUGGCUCGUATT against H3c1 the z-score was inactive: 0.92.
For GUAUUCCAAUGUGGUGUUCTT against Txn1, the z-score was inactive: 0.712.
For GGUACUAAAGAAAUAUCCCTT against Sirt7, the z-score was inactive: 0.736.
In the case of GGGUCAGUCCUUUUGAAUCTT against Rps15a, the z-score is reported as inactive: 0.104.
For GGAUUAUGGAGUUUGAUAGTT against Mrgprb4, the z-score was inactive: 0.938.
With GGAAUCAGUCGCAUCACUUTT against Gm4792 the z-score was inactive: -0.769.
In the case of GCUUUGUCUACGUCUUUCATT against Gpnmb, the z-score is reported as inactive: 0.307.
For GGCAAGUUUCGCACCUCAGTT against Zfp219, the z-score was inactive: -0.755.
For GGUUCAGAUGAAAUUUAGGTT against Ccnb1, the z-score was inactive: -1.41.
With GCCUCCCUCCAACAUUUAUTT against Sall4 the z-score was inactive: -1.53.
For GGUGGAAAGAGAGAGCUACTT against Slc12a7, the z-score was inactive: 0.458.
For GCUUCUGACCAUAUGUAGATT against Cd19, the z-score was inactive: 0.183.
For CCUUGUUAGAGCAUUACAATT against Rprd1a, the z-score was inactive: 1.34.
With GGAAACUUUGCUGGUUAUATT against Dct the z-score was inactive: 1.2.
For GGUCACCUCAAUAAACUCUTT against Myl7, the z-score was inactive: 0.228.
In the case of GCACCUAGUUAAUGCUGCCTT against C2cd2, the z-score is reported as active: -2.15.
With GCUACAAUGCAACGUGGCUTT against Slc2a4 the z-score was inactive: 0.385.
In the case of CCGGCUAUCUUUGAGAUGGTT against Kif3c, the z-score is reported as inactive: -0.602.
With GGAAUAAAGCUCAUCUACGTT against Slc43a2 the z-score was active: 2.09.
With GGCAACAUUGAACAUGCCUTT against Stambp the z-score was inactive: -1.76.
For GGAGAAAAAUAUUCUCUACTT against Olfr1094, the z-score was inactive: 1.19.
In the case of CCCAUUCUCAGGGUACUAATT against Necab3, the z-score is reported as inactive: -1.7.
With CCCAUUAGACCCAAGUUGGTT against Inpp5e the z-score was inactive: -0.836.
For GGAUGACCGUAUUGUGCUUTT against Actc1, the z-score was inactive: 0.292.
For GGAUGACAUCAUCAUUUGUTT against Samm50, the z-score was inactive: 1.23.
With GGAGGACUUUGUGUCUUACTT against Pald1 the z-score was inactive: -0.136.
For GGAAUCGAUGUUAACAUAATT against Anks1, the z-score was inactive: 0.3.
For GCAUAUUCUCACGUUUUCCTT against Mrgpra6, the z-score was inactive: -0.322.
In the case of AUUCAUGUGGGCUUGUUAGTT against Olfr198, the z-score is reported as inactive: -0.0194.
In the case of GGAGACUUUGUUCAUGACATT against Tacr2, the z-score is reported as inactive: 0.192.
For CGGGUGAUGCCUAUGUCAUTT against Gsn, the z-score was inactive: 0.837.
For GUUCCAUCUCCUUCCAGGATT against Cdc42ep2, the z-score was inactive: 0.556.
In the case of GCUGUAACAAAGGAAAUAGTT against Nos2, the z-score is reported as inactive: 0.779.
For GGCACAAACCUCUUUUGUUTT against Rtkn, the z-score was inactive: -0.684.
In the case of GGCUACUCCUAUGACCUGATT against Psmb5, the z-score is reported as inactive: -0.615.
For CGGAAAUGUAUACAAAUCATT against Myt1l, the z-score was inactive: 1.67.
In the case of GGCAAUAACUGCUUUAUCUTT against Olfr509, the z-score is reported as inactive: -0.68.
In the case of GGGAAUGGAAACGGCCAUGTT against Nmt1, the z-score is reported as active: 2.02.
In the case of CCAAGUGCUAAACAAGACATT against Spata31, the z-score is reported as inactive: 1.06.
For CCUAACUUACCUUCAUCUATT against Fbxo7, the z-score was inactive: -0.29.
With GGAUGUGGCCAUGGACUUUTT against Zfp286 the z-score was inactive: -1.
For GGCAAAAUGACACGGACACTT against Cd300lb, the z-score was inactive: 0.616.
For CCAAGAUGCGAGUGGAGAGTT against Rgs9, the z-score was inactive: 0.325.
In the case of GCAGAAGUCGAGCUAUGUUTT against Zfp365, the z-score is reported as inactive: -1.21.
For GCCUGAACUUCUUAGCAUGTT against Uchl3, the z-score was inactive: 0.737.
For GGUGAAGAUCUGAUAAGAATT against Epb41, the z-score was inactive: -1.44.
With GCAGUGUCCCUAAAUGUUCTT against Adra1d the z-score was inactive: -0.734.
In the case of GGGAUAACCAGUGAAUUUATT against Pcdhb15, the z-score is reported as active: 2.23.
With GGCCAUCAAACAGACCUACTT against Lrp5 the z-score was inactive: -1.12.
With GGACUCACCCAUUCUUAUUTT against Mapre3 the z-score was inactive: 0.0804.
In the case of GGACUUUGUAGACAACGUGTT against Ap4b1, the z-score is reported as inactive: -1.25.
For CGAGUGUGAGCUACAGCGUTT against Agrn, the z-score was active: 2.74.
For GUGGUAAACAGAAUGGUGATT against Ccdc92b, the z-score was inactive: -1.
In the case of CCAAUAAAAGUUGAGAGCUTT against Krt18, the z-score is reported as inactive: -0.272.
With GGAGAGUGAGAUCAUCUUUTT against Pde6a the z-score was inactive: -1.4.
For GGACUUGUUCCUGAAGACATT against Ubfd1, the z-score was inactive: 0.312.
In the case of GGGUAUCAAUCUUAGGUUATT against Map6d1, the z-score is reported as inactive: 1.05.
For GGCAGCUCACAUGAGCUUUTT against Hoxa4, the z-score was inactive: 0.879.
In the case of CGAAGUCGUGGCAAUGAUUTT against Nfu1, the z-score is reported as inactive: 1.39.
In the case of GGGCAACCCAAAGAUGCCATT against Pla2g2d, the z-score is reported as inactive: -0.835.
For UGGAUAUUGGCUGAUGAGCTT against Bckdhb, the z-score was inactive: -0.177.
With GCUCUGGUUGCCAGUUAUGTT against Ddx49 the z-score was inactive: 0.903.
In the case of GCAAAUGCAUGACUUCUAUTT against Pcgf6, the z-score is reported as inactive: 1.81.
For GGAAAACUUGAAGACAGAUTT against Scaper, the z-score was inactive: 0.374.
With GCAACUUGGAAUGUUAUCUTT against Adh4 the z-score was inactive: -0.471.
For CGUGGUUCAGUUUCAUCAATT against Cox7a2, the z-score was inactive: 1.52.
With GGACAUGCAAAGAUACCGGTT against Ogfr the z-score was inactive: 0.184.
In the case of CGUCUACCCGGAAUUUCAGTT against Sdha, the z-score is reported as inactive: -1.42.
With CCUGGUGGAUUGUUGGUGUTT against Guca1b the z-score was inactive: -0.254.
In the case of GGUUCUGAUUUCAUUUGAUTT against Pkia, the z-score is reported as inactive: -0.774.
For GGAGUCCUGUAAAUGCAAUTT against Kat2b, the z-score was inactive: 0.0824.
For GCAAGAAAUGGACAAUUACTT against Gkap1, the z-score was inactive: 0.478.
In the case of CCAACAGUAGAUAAAAAGCTT against Sesn1, the z-score is reported as inactive: -0.0778.
In the case of GGCCCAAACACGUGUAAAATT against Kdm5b, the z-score is reported as inactive: 0.322.
With GGCUUUACAUUUUCAUUGUTT against Olfr993 the z-score was inactive: -0.219.
With GGAAAAUUGCAUGAGGGUUTT against Col6a6 the z-score was inactive: 1.35.
With GCUGAGAGUAUCCUUAUUCTT against Fhdc1 the z-score was inactive: 0.374.
In the case of GCAUCACUGGAAAUCUUACTT against Olfr807, the z-score is reported as active: -2.31.
With GGUUGUGCCAGAGGAGAUUTT against Scrib the z-score was inactive: 0.963.
For CCUACUGAUGUACACUGGATT against Fgf20, the z-score was inactive: 0.728.
In the case of GCGAUCUAGAAAUUGACAATT against St13, the z-score is reported as inactive: -0.59.
In the case of CAAAGGAUGGCUGGUCAGATT against Sctr, the z-score is reported as inactive: 0.0193.
With GCAGGAUGCAGCGAUAGUUTT against Slc2a6 the z-score was inactive: -0.952.
With GGAAUUAAGUCAUCAGGAATT against Slc6a5 the z-score was inactive: -0.763.
With GCGGGAGCUUAGCUUUUAUTT against G6pc3 the z-score was active: 3.33.
In the case of GGGCAACUACCUCUUUCGATT against Lrrc20, the z-score is reported as inactive: 0.516.
With UAAUGGCUGCUGUCUCCUGTT against Olfr441 the z-score was inactive: 0.405.
In the case of CCAAUCUUAGUCAUCCAUUTT against Foxo6, the z-score is reported as active: -2.27.
With GGAAGCUAUGAACAAUACATT against Sulf2 the z-score was inactive: 0.00856.
With CGAUAAAAAUGAAUGGGACTT against Cyp17a1 the z-score was inactive: 0.959.
With GCAACAGCUUUAGAGUGACTT against B3gnt4 the z-score was inactive: 0.517.
For GGAUACAUUAAGGUGCAAGTT against Aldh1a7, the z-score was inactive: 0.819.
For GGUUCAGUUUUGGCUGGCUTT against Olfr558, the z-score was active: 2.04.
In the case of GGUGGACUCUGUUUAAAAATT against Mtnr1a, the z-score is reported as inactive: 0.971.
With GCAACUUCUAAAGGUCCUATT against Oaf the z-score was inactive: -0.561.
With GCUUCAACAGUAAUAAUCGTT against Adamtsl1 the z-score was active: 2.75.
With GAACUGAAGAAGCAGAUUGTT against Isg15 the z-score was inactive: 0.601.
In the case of GGGCUAUGUUCGAAGUAAATT against Kbtbd3, the z-score is reported as inactive: -0.848.
For GUAAUCACCUUAAAGAUGUTT against Cebpb, the z-score was inactive: 1.32.
In the case of GCCCUAAUUAGCUUUUUGUTT against Gpr68, the z-score is reported as inactive: 0.719.
For GGGUCAUCCAAUAUUUUGCTT against Myh7, the z-score was inactive: -0.807.
With GGGCAAGAAACCUCUUAACTT against Synpo2 the z-score was inactive: 1.57.
For GGAAAUGAGACGAAGGAGGTT against Kpna6, the z-score was inactive: -0.642.
In the case of CCCAGAUACGCUAUUCGGUTT against Pcdhga12, the z-score is reported as inactive: -0.566.
In the case of GCGCGAUAGAUUUUGUUUATT against Ier5l, the z-score is reported as inactive: -0.427.
With GGCUGUUUGUGGUAUAGGUTT against Lrrc3 the z-score was inactive: -1.05.
